{"source": "PubChem BioAssay AID602254", "about": "(Broad Institute, 2012)", "note": "The campaign covered roughly 1,000 compounds. Fewer than 10 were called active.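 Rule for the calls: active = fitted half-maximal concentration no higher than twice the top valid tested dose, with signal falling; inconclusive = flat curve with 30 to 70% inhibition, or poor fit; inactive = the rest.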 The list shows a part of the results. Potency and affinity values are given separately."}
{"target": "Golgi-associated PDZ and coiled-coil motif-containing protein (Homo sapiens) (UniProt Q9HD26)", "test": "CAL PDZ domain peptide-binding inhibitors, dose response, biochemical, fluorescence polarization, untagged CAL PDZ, cherry-pick, set 2 (AID 602254);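 note: 0% = DMSO neutral control and -100% = unlabeled peptide PRC23 positive control; more negative means stronger blocking of peptide binding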", "conditions": "Purified CAL PDZ, TMR peptide fluorescence polarization; at 60 µM (top of the series)"}
{"compound": "CCc1noc(C)c1C(=O)N1CCCC(CCC(=O)NCc2ccc(F)c(F)c2)C1", "note": "(stereo not given)", "activity change, negative = inhibition": "inactive: 3.47%"}
{"compound": "Cc1ccc(S(=O)(=O)NCC(=O)NCC(=O)N(C)Cc2ccc3ccccc3c2)cc1C", "activity change, negative = inhibition": "inactive: -1.24%"}
{"compound": "COc1ccc(OCC(=O)Nc2ccccc2C(=O)N2CCOCC2)cc1", "activity change, negative = inhibition": "inactive: -1.76%"}
{"compound": "COc1ccc(OCCC(=O)OCC(=O)NCc2ccc(F)cc2)cc1", "activity change, negative = inhibition": "inactive: -0.608%"}
{"compound": "CCN(CC(=O)NCc1cccs1)C(=O)c1cc(=O)[nH]c2ccccc12", "activity change, negative = inhibition": "inactive: -2.51%"}
{"compound": "CC(C)=C1C(=O)NN(c2cccc(Cl)c2)C1=O", "activity change, negative = inhibition": "inactive: 0.379%"}
{"compound": "CCN(C(=O)CCc1ccccc1)C1CCCCC1", "activity change, negative = inhibition": "inactive: -0.852%"}
{"compound": "O=C(Nc1ccc(F)cc1)C1CCCN1S(=O)(=O)c1cccc2nsnc12", "note": "(stereo not given)", "activity change, negative = inhibition": "inactive: 1.12%"}
{"compound": "O=S(=O)(c1ccccc1)n1ccc2ccccc21", "activity change, negative = inhibition": "inactive: 1.85%"}
{"compound": "COc1ccccc1NC(=S)N(Cc1ccc(C(=O)O)cc1)Cc1ccc(OC)c(OC)c1", "activity change, negative = inhibition": "inactive: 1.02%"}
{"compound": "O=C(CNC(=O)c1ccccc1F)c1ccc(Br)cc1", "activity change, negative = inhibition": "inactive: -1.22%"}
{"compound": "CNC(=O)Cn1nc(C)c(S(=O)(=O)N2CCOCC2)c1C", "activity change, negative = inhibition": "inactive: 0.191%"}
{"compound": "COc1ccc(OC)c(NC(=O)c2ccc(OC3CSC3)cc2)c1", "activity change, negative = inhibition": "inactive: 1.19%"}
{"compound": "CC(C)(C)NC(=O)C1CC1(c1ccccc1)c1ccccc1", "note": "(stereo not given)", "activity change, negative = inhibition": "inactive: -1.38%"}
{"compound": "O=C(COC(=O)c1ccc2ncsc2c1)NCc1ccc(F)cc1", "activity change, negative = inhibition": "inactive: -0.556%"}
{"compound": "COc1ccccc1OCC(=O)N1CCCC(Nc2ccc(F)c(F)c2)C1", "note": "(stereo not given)", "activity change, negative = inhibition": "inactive: -2.78%"}
{"compound": "COc1ccc(NS(=O)(=O)c2cc(NC(=O)c3cnccn3)ccc2OC)cc1Br", "activity change, negative = inhibition": "inactive: 8.71%"}
{"compound": "CCc1nnc(NC(=O)c2cc(C)nc3ccccc23)s1", "activity change, negative = inhibition": "inactive: -9.44%"}
{"compound": "CC(C)c1ccc(S(=O)(=O)N2CCN(C(=O)c3cccc(F)c3)CC2)cc1", "activity change, negative = inhibition": "inactive: 4.73%"}
{"compound": "Cc1cc2oc(C(=O)Nc3ccc(S(=O)(=O)Nc4ncccn4)cc3)cc(=O)c2cc1Cl", "activity change, negative = inhibition": "inactive: 2.6%"}
